Laboratory results reported in PMC10744335.
Results are given in words; binding and its absence hold for the method and conditions named. Binding seen in cells or lysates may run through a third protein. Some entries that bind do so weakly or less than the wild type. For some of these results: Sequences can lack the tags named with a protein.

Protein sequences, listed by entry. Tags and fused reporters are not part of them. Lines headed by an entry give the natural chain unless they say otherwise; changes in a name come on top.
UniProt P62140: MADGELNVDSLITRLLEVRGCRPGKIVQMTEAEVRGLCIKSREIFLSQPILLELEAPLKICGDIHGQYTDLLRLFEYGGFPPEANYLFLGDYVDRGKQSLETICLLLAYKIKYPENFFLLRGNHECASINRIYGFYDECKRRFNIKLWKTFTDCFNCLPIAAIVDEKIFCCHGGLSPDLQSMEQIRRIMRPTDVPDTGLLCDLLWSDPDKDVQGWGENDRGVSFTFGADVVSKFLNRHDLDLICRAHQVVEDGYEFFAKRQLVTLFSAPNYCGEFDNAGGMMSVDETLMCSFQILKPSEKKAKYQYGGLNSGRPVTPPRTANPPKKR
UniProt P35240: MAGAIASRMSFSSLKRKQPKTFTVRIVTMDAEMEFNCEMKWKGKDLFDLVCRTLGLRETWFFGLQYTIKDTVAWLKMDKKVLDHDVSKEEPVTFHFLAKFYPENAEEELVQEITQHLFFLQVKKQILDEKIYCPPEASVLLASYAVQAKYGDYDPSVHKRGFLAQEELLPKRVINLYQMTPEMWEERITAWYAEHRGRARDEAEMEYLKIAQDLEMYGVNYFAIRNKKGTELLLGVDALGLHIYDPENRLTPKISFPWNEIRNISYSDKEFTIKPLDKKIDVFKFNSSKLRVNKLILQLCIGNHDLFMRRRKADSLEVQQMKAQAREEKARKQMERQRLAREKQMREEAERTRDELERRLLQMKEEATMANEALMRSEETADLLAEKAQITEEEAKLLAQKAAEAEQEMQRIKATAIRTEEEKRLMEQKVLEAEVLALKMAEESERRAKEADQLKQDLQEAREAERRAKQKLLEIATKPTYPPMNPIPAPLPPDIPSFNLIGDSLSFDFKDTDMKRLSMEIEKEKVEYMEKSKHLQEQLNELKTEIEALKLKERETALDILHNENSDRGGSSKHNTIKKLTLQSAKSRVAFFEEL
UniProt P62136: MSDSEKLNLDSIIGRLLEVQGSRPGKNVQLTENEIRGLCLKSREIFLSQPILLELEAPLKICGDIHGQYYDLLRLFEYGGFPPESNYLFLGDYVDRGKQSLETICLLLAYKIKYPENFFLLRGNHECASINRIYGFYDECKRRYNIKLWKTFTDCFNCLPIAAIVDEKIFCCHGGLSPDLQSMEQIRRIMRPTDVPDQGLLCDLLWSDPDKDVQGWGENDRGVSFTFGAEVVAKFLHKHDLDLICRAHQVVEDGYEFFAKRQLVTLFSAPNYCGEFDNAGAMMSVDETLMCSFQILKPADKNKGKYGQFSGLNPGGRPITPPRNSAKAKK

T1: GST-tagged bacterially expressed TIMAP protein (human) (UniProt Q96T49)
T1 sequence: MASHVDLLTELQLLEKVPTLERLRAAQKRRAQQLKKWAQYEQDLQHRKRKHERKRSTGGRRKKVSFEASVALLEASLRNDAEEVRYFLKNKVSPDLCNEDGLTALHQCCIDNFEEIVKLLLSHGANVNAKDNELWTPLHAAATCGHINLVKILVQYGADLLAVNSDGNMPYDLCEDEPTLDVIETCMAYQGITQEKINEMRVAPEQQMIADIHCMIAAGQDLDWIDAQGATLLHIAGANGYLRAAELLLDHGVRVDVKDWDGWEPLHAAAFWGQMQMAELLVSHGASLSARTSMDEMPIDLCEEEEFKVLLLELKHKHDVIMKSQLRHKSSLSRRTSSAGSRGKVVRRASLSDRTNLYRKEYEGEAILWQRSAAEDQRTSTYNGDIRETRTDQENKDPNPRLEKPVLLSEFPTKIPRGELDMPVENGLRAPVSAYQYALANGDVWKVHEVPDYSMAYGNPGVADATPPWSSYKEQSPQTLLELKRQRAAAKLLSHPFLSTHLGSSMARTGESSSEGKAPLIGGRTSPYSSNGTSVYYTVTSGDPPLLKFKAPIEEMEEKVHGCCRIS

T2: TIMAP (TGF-β-inhibited membrane associated protein) (human (endogenous in SH-SY5Y)) (UniProt Q96T49)
T2 sequence: T1 sequence

B1: TIMAP (TGF-β-inhibited membrane associated protein) (protein, UniProt Q96T49 1-567)
chain: T1 sequence

Tests used:
[1] = biological target: T1, GST-tagged bacterially expressed TIMAP protein (human); experiment: pull-down; GST-TIMAP immobilised on glutathione Sepharose 4B beads, incubated with SH-SY5Y cell lysate (50 mM Tris-HCl pH 7.5, 0.2% 2-mercaptoethanol, 0.1% Tween 20, protease inhibitors); Western blot; only the target purified
[2] = biological target: T2, TIMAP (TGF-β-inhibited membrane associated protein) (human (endogenous in SH-SY5Y)); experiment: co-IP; endogenous TIMAP or PP1cδ immunoprecipitated with specific antibodies from SH-SY5Y cell lysates; Western blot for TIMAP, PP1cδ and PP1cα; rabbit IgG as negative control
[3] = biological target: protein phosphatase 1 catalytic subunit, δ isoform (PP1cδ) (human (endogenous in SH-SY5Y)) (UniProt P62140); experiment: as above

Row | Molecule | binding [2] | other results
1 | merlin (neurofibromin 2; NF2) (from UniProt P35240 1-595) | – | binding [1]: binds
2 | protein phosphatase 1 catalytic subunit, α isoform (PP1cα) (from UniProt P62136 1-330) (enzyme) | no binding | –
3 | protein phosphatase 1 catalytic subunit, δ isoform (PP1cδ) (from UniProt P62140 1-327) (enzyme) | binds | –
4 | B1 | – | binding [3]: binds
